# In all, about 200,000 compounds went through this assay and about 25 (0.01%) were called active. The shares of active, inactive and inconclusive entries below differ from those in the screen. Calls come from the whole dose curve; as a rule, active = well fitted inhibition curve with a large enough effect in the signal ratio, with a control signal flat (not every such curve was filed as active); inconclusive = small, poorly fitted or top-dose-only effect, or effect the other way, or a change in a side signal; inactive = flat fitted curve, though single readings scatter; the % refers to the signal ratio. Where the call is inconclusive, the potency comes from a doubtful curve fit.
# Test: qHTS Assay for Modulators of Lamin A Splicing
# Conditions: HeLa LMNA splicing GFP/RFP minigene ratio, 48 h; ratio change, negative = inhibition: at 46.1 µM (top of the series) unless noted
# Outline: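 S3 HeLa stable clones carrying a lamin A-EGFP splicing minigene plus DsRed2 were seeded at 600 cells/well in Opti-MEM with 2% FBS, pin-dosed and incubated 48 h at 37°C. Acumen cytometry (488 nm) gave the GFP/RFP total-intensity ratio.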
# % is set by controls: 0 for no effect and ±100 for the full control effect; potency is the fitted concentration of half-maximal effect.
SMILES,"ratio change, negative = inhibition",Potency
COc1ccc(-c2nnn(CC(=O)N(CCO)C(C(=O)NC3CCCC3)c3ccncc3)n2)cc1 (stereo not drawn),inconclusive: -13.7% [at 46 µM],
COc1ccc(C(=O)Oc2cc(/C=N/NS(=O)(=O)c3ccccc3)ccc2OC)cc1,inactive: -2.9%,
CC(C)NC(=O)C1COc2ccccc2O1 (stereo not drawn),inconclusive: -1.42% [at 46 µM],
COc1c(Cl)cnn(-c2ccc(C)cc2)c1=O,inactive: 8.12%,
COc1ccc(CCNC(=O)CN(c2ccc(OC)c(OC)c2)S(C)(=O)=O)cc1,inactive: 0.631%,
CCOC(=O)c1sc(NC(=O)c2cccc(S(=O)(=O)N3CCN(C)CC3)c2)cc1C,inconclusive: 13.6%,
FC(F)(F)c1cc(Cl)c2nc(-c3ccccc3)cn2c1,inconclusive: 11.1%,
COc1ccc(C(=O)N/C(=C\c2cc(OC)c(OC)cc2[N+](=O)[O-])C(=O)NCC(=O)O)cc1,inconclusive: 14.9% [at 46 µM],
COc1ccccc1Cn1c(CNS(=O)(=O)c2cccc([N+](=O)[O-])c2)nc2cccnc21,inactive: -11% [at 46 µM],
CC(C)CNc1oc(-c2ccco2)nc1C#N,inactive: 1.49%,
COc1ccc(C)cc1NC(=O)CCn1nc(C)cc1C,inactive: 18.8% [at 46 µM],
O=C(CSC1=N/C(=C/c2ccco2)C(=O)N1c1ccc(OC(F)F)cc1)NC1CCS(=O)(=O)C1 (stereo not drawn),,"inconclusive: 7.08 µM [inhibitor, partial curve]"
CCOC(=O)C(=NC1CCCCC1)NNc1cccc(C(F)(F)F)c1,inactive: -10.5%,
COc1ccccc1NC(=O)CSC1=Nc2ccccc2N=C(c2ccc(F)cc2)C1,inactive: -8.2% [at 46 µM],
COc1ccc(/C=C/C(=O)c2ccc(Cl)cc2)c(OC)c1,,"inconclusive: 35.5 µM [cytotoxic, single point]"
COc1ccc2[nH]cc(CCNc3ncncc3-c3cccc(NS(C)(=O)=O)c3)c2c1,inconclusive: -16.6%,
Nc1ccc(C(=O)Nc2ccco2)cc1,inactive: -9.47%,
COc1cccc(Nc2nnc(SCn3nnc4ccccc4c3=O)s2)c1,inconclusive: -1.32%,
COc1ccc2[nH]cc(CCNS(=O)(=O)c3ccccc3)c2c1,inactive: 4.9% [at 46 µM],
COc1cc(NC(=S)NC2CC2)c(OC)cc1Cl,inactive: 14%,
NCCCCN,inconclusive: -9.11%,
Cn1cc([N+](=O)[O-])c(C(=O)Nc2cc(Oc3cccnc3)cc([N+](=O)[O-])c2)n1,,"inconclusive: 5.62 µM [cytotoxic, single point]"

SMILES,"ratio change, negative = inhibition",Potency
CCOc1ccc(S(=O)(=O)N2CCN(Cc3ccccc3)CC2)c2cccnc12,,"inconclusive: 20 µM [fluorescent, single point]"
N#C/C(=C/c1ccccc1[N+](=O)[O-])c1nnc2n1CCCCC2,inactive: -14.2%,
COc1cccc(Cn2c(CNS(=O)(=O)c3ccc4c(c3)CCCC4)nc3cccnc32)c1,inconclusive: -11.9% [at 46 µM],
COC(=O)CCC(=O)Nc1sc(C)c(C)c1C(N)=O,inactive: 1.67%,
COc1ccc(OC)c(Nc2ccc(C(=O)O)cc2[N+](=O)[O-])c1,inactive: -7.72%,
COc1ccccc1CN1CCN(C2CCN(C(=O)NC(C)C)CC2)C(=O)C1=O,inactive: -8.47% [at 46 µM],
CCCc1c(O)nc(SCCN(CC)CC)n(C(=O)c2ccccc2)c1=O,inactive: -3.4%,
Fc1ccccc1/C=C1\CCCC2=C1Nc1ncnn1C2c1ccccc1F (stereo not drawn),,"inconclusive: 35.5 µM [cytotoxic, single point]"
Cc1ccc(-c2n[nH]c(=S)n2/N=C/c2c(C)[nH]n(-c3ccccc3)c2=O)cc1,inconclusive: 8.98% [at 9.22 µM],
O=C(Nc1ccc2c(c1)OCCO2)c1cncc(Br)c1,inactive: 8.48%,
COc1cc(NC(=O)c2ccc3c(SCC(=O)O)c4c(nc3c2)CCCC4)cc(OC)c1OC,inconclusive: 3.72% [at 46 µM],
COc1ccc(NS(=O)(=O)c2cccc(Cl)c2)cc1S(=O)(=O)N1CCCCC1,inconclusive: -43.9%,
Brc1ccc(-c2nn3c(-c4ccco4)nnc3s2)o1,inconclusive: -9.12%,
CC1=C(C(=O)O)N2C(=O)[C@@H](NC(=O)C(N)C3=CCC=CC3)[C@H]2SC1 (stereo partly drawn),inactive: -14.1%,
O=C(c1c(F)c(F)c(F)c(F)c1F)N(Cc1ccccc1)Cc1ccccc1,inconclusive: 41.8%,
Cc1ccc(-c2noc(CN(C(=O)c3cccs3)C(C)C)n2)cc1,inconclusive: -30.5%,
CCN1C(=O)/C(=C\N(C(C)=O)c2ccccc2)OC1=S,inactive: -18.6%,
COc1cc(C2=NOC(C(=O)NCc3ccccn3)C2)cc(OC)c1OC (stereo not drawn),inactive: -5.57%,
O=[N+]([O-])c1ccc(/C=C/C2=NN(c3ccccc3)C(c3ccco3)C2)o1 (stereo not drawn),inconclusive: -20.6% [at 46 µM],
COc1ccc(S(=O)(=O)N2CCOCC2)cc1NC(=O)COC(=O)C1COc2ccccc2O1 (stereo not drawn),inactive: -3.27%,
O=C(CCc1nc2ccccc2c(=O)[nH]1)NCc1ccco1,inconclusive: -31.1% [at 46 µM],

# Quoted at random: 2 records from the list
SMILES,"ratio change, negative = inhibition",Potency
O=C(CCc1nc2ccccc2c(=O)[nH]1)NCc1ccco1,inconclusive: -31.1% [at 46 µM],
COc1c(Cl)cnn(-c2ccc(C)cc2)c1=O,inactive: 8.12%,

# From PubChem BioAssay AID1487 (National Center for Advancing Translational Sciences (NCATS), 2009)
